This is an account of results in article PMC6661058.

The target in the data set is T1, CepR (His-tagged response regulator) (Streptomyces clavuligerus F613-1) (UniProt E2PWN2).
T1 sequence (looked up): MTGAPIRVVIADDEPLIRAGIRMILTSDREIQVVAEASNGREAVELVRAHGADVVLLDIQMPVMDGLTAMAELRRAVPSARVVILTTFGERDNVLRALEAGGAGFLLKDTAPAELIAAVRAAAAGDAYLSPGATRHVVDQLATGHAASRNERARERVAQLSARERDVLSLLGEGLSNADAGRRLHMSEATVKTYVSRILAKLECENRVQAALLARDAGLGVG
The data set can be described thus: EMSA. To be noted: 1.0 ug poly(dI-dC), EMSA with 0.5-3.0 ug His-CepR and 1.0 ug poly(dI-dC), pH and temperature not given (as in Fu et al. 2019; Zhang et al. 2015), recombinant protein, residues 3-224, probe letters rebuilt from the primers and the genome.

No signal at the amounts used counts as a negative. Protein sequences can lack the tags named with them.

“CCCAGTCGGCTACCGCCATGTCAACGCATCTCCCGCAAATCCAGAAGAACAGTCAATTCAGTGCAGCCATCGAAATTCGATCGGCCCGATGCAGCGTAGCAGTCATGACTCGATCTCGAACAGGAAGATTTTCTGTCCGCTTCGGAAAAATAGCGAAGAGATTCTGAAGACCAGCCGAAGAGCACTTCAAGAGTCCTGTCGTCCAGCATAGGTAGCCCACATTATGCAGTAAACCGTCCGGGCTGCTCGGCATTTGAATCTTTCGACCTTTTGTCCCGCTCCACAGGAGTTATCACCCATGGGTGCACAACGGCG (double strand) [cefD-cmcI intergenic P2]”: the binding result (3.0 ug CepR) is reported as “no binding”. In the case of “TGCGGCGATCGGACGACCATCGATTGATGGTCCGCCGGCGGTCGATCGGCGGTCGGGCGACAGAGGTATGAACCAGTGTCAGGCGCCGCTCTGGACAGTACACTCCAGGCCGGTGAAGGAACTGTCAAGACCCGGTGATCACGGCCTTTACAAGATGTGGTCCAGGTGCCGCATGCATCACGCAACCATCGATCTCGACCAGAAGTTGAGATCGATGGAAAATGAGTCATGAAATGGCCTAATCTGCACGCCTAGCCCGCTCTGACCTGCTGCTTTAGCAGCTCGGAGACGTGGGCGGCGCCGTTGTGCACCCATGGG (double strand) [cefD-cmcI intergenic P3]”, the binding result (0.5-3.0 ug CepR, shift almost abrogated by 100-fold unlabeled P3) is “binds”.
